Source: US20040013664A1
These are yes or no findings as the source states them, for the method shown. Some entries that bind do so weakly or less than the wild type. Where a sequence is shown, tags or fusion partners need not be part of it.

By UniProt entry, the sequences of proteins in these tests, tags left out. Where a name states a change or a piece, a line headed by the entry shows the natural chain unless it says otherwise. Chains listed by the source or under a name are the forms on record and can include a tag or linker. Residues count along the entry.
UniProt O43557: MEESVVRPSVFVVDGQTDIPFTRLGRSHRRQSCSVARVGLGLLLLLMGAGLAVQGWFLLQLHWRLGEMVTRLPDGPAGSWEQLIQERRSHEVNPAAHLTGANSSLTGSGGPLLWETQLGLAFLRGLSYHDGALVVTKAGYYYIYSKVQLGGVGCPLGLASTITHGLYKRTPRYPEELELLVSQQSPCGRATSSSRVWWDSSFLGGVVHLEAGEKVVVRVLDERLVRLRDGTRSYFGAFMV
Flag-tagged soluble AIM-II: residues 74-240 of O43557
UniProt P48023, residues 103-281: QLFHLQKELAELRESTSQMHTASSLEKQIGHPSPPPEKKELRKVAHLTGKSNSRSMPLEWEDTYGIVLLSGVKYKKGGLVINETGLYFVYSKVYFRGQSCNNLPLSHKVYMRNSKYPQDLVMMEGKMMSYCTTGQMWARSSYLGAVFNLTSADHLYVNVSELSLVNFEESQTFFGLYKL

Tests used:
[1] = biological target: Flag-tagged soluble AIM-II (UniProt O43557); assay: immunoprecipitation in the presence of HVEM/TR2-Fc
[2] = biological target: Flag-tagged soluble AIM-II (UniProt O43557); assay: summary of Example 7 (immunoprecipitation, flow cytometry)
[3] = biological target: FasL-Flag (Flag-tagged soluble FasL of Example 7) (UniProt P48023); assay: summary of Example 7 (immunoprecipitation)
[4] = biological target: AIM-II expressed on HEK 293 EBNA cells (UniProt O43557); assay: flow cytometry on AIM-II-transfected HEK 293 EBNA cells
[5] = biological target: Flag-tagged soluble AIM-II (UniProt O43557); assay: immunoprecipitation with anti-Flag agarose, western blot with anti-poly(His)6
[6] = biological target: FasL-Flag (Flag-tagged soluble FasL of Example 7) (UniProt P48023); assay: as above

Measured: binding

B1: TNFR-6 alpha-(His) (receptor)
chain: VAETPTYPWRDAETGERLVCAQCPPGTFVQRPCRRDSPTTCGPCPPRHYTQFWNYLERCRYCNVLCGEREEEARACHATHNRACRCRTGFFAHAGFCLEHASCPPGAGVIAPGTPSQNTQCQPCPPGTFSASSSSSEQCQPHRNCTALGLALNVPGSSSHDTLCTSCTGFPLSTRVPGAEECERAVIDFVAFQDISIKRLQRLLQALEAPEGWGPTPRAGRAALQLKLRRRLTELLGAQDGALLVRLLQALRVARMPGLERSVRERFLPVHHHHHH
binds: [1] | [2] | [3] | [4] | [5] | [6]
